Data on six molecules can be found in article PMC11096359.

By UniProt entry, the sequences of proteins in these tests, tags left out.
UniProt Q13283: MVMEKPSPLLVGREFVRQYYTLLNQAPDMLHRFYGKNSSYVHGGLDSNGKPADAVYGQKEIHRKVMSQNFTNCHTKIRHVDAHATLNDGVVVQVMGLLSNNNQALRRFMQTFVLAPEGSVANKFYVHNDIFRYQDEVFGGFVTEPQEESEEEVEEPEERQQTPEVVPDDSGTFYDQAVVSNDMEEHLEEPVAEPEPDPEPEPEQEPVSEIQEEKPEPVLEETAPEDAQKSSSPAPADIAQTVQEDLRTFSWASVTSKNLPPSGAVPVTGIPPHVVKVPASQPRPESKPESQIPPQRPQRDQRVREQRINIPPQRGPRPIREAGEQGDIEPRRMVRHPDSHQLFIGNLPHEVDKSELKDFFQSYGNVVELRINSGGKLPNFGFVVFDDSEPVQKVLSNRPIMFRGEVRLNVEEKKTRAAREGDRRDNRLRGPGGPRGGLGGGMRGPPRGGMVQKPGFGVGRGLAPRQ
UniProt Q14258: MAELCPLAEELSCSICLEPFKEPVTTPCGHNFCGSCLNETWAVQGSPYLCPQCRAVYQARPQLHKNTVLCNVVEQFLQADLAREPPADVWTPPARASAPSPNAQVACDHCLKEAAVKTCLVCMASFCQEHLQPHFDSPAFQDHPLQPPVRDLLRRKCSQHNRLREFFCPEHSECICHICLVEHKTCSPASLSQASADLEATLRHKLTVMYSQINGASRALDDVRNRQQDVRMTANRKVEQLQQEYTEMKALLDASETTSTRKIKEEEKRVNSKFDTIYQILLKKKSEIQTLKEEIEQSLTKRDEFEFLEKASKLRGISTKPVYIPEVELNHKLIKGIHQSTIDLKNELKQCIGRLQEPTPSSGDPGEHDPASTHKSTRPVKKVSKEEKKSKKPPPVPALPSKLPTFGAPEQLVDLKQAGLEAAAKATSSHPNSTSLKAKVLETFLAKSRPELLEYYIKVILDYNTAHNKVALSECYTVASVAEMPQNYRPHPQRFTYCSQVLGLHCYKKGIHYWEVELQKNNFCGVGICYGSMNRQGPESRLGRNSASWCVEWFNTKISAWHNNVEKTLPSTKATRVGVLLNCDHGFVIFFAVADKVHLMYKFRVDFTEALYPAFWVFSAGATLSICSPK
UniProt O00571: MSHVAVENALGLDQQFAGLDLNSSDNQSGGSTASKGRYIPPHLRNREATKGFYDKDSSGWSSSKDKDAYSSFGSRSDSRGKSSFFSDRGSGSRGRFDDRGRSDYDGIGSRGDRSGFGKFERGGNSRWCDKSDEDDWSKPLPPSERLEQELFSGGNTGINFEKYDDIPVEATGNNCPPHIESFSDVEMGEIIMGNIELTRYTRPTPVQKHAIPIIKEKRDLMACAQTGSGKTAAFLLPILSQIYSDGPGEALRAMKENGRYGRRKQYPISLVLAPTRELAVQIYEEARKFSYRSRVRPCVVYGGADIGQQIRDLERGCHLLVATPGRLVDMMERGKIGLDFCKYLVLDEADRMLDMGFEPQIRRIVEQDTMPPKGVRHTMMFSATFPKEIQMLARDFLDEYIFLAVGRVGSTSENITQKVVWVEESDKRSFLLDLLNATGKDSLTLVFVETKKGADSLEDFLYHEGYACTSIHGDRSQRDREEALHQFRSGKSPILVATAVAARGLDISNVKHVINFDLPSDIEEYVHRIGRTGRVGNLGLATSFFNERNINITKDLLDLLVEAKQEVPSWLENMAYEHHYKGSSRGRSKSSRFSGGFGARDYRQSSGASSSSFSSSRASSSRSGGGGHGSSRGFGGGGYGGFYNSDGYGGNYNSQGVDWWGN
UniProt Q9Y6M1: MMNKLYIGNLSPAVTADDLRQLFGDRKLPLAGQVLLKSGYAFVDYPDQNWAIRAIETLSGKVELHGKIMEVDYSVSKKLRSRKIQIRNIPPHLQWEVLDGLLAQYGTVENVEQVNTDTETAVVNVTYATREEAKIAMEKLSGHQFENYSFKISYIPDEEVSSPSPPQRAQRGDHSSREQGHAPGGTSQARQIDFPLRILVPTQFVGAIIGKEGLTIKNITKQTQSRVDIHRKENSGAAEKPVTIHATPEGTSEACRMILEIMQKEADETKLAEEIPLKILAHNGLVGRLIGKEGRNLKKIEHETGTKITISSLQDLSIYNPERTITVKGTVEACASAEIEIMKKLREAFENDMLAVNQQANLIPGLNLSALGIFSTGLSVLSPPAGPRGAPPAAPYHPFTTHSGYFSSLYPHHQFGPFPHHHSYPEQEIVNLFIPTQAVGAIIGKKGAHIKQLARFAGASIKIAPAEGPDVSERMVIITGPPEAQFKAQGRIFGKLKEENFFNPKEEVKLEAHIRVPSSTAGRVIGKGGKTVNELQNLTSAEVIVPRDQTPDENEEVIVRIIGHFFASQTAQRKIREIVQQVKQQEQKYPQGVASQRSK
UniProt Q7Z2W4: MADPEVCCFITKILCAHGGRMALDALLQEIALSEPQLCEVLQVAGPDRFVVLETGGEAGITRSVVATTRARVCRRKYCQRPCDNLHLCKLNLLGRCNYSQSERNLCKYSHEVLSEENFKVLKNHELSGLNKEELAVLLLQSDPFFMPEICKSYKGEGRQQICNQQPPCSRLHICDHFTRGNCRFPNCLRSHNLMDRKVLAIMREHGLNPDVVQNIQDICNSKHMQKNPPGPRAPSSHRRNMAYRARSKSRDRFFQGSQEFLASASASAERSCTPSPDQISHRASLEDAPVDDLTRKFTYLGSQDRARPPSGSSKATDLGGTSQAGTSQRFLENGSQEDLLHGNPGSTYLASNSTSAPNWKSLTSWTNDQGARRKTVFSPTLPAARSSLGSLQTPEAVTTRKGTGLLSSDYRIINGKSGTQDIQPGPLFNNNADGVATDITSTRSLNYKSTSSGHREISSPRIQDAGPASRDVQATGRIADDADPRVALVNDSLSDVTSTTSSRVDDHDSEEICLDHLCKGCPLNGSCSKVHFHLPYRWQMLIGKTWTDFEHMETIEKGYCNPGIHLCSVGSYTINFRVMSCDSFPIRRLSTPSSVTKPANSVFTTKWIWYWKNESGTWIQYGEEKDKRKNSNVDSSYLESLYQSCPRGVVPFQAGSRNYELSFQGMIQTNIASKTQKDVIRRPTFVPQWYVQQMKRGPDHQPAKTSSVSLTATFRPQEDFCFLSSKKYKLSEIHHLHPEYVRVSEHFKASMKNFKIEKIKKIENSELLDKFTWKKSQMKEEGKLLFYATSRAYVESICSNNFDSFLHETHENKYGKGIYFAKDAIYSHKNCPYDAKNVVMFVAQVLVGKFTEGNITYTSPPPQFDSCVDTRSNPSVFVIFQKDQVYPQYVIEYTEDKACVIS
UniProt Q9UBN7: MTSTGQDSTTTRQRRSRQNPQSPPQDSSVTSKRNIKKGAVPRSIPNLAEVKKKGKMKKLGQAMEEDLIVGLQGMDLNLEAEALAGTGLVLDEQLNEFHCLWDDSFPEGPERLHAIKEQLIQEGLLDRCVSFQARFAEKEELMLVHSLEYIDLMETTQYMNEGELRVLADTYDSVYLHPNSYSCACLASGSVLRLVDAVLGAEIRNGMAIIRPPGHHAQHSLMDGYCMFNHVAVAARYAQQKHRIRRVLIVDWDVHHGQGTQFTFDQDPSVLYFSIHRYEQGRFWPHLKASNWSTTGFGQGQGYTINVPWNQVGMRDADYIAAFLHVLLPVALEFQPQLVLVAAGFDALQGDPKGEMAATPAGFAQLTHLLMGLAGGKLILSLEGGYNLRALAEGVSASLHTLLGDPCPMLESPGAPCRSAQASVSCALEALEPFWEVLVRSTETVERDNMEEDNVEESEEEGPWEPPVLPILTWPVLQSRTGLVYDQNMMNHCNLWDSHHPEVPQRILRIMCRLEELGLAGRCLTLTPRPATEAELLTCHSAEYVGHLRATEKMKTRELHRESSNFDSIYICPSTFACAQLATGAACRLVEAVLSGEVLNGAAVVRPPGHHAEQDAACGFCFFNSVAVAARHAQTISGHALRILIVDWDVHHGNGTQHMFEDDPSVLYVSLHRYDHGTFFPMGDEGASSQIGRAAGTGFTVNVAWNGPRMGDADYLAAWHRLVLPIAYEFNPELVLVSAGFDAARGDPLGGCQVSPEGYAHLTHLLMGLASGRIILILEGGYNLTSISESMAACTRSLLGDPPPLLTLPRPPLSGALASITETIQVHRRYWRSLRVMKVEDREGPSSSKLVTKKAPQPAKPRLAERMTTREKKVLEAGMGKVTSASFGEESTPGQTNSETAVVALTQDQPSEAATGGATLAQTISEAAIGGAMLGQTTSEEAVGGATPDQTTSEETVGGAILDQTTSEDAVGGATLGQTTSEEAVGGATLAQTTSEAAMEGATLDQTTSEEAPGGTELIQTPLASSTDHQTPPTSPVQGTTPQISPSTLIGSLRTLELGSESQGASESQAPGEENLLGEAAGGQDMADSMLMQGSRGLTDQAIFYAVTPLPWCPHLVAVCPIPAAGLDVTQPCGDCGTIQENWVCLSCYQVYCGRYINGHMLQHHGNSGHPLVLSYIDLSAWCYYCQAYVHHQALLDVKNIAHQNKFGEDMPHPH

In test [1] the target is G3BP1-BirA* (human) (UniProt Q13283). Nature of the test: proximity labelling; G3BP1-BirA* in HEK293T, poly(I:C) versus untreated, 500 μM biotin, streptavidin beads, TMT-based quantitative mass spectrometry.
Test [2] deals with TRIM25-BirA* (human) (UniProt Q14258). As to the kind of experiment: proximity labelling; TRIM25-BirA* (WT versus ∆PTFG; poly(I:C) versus untreated) in HEK293T, 500 μM biotin, streptavidin beads, TMT-based quantitative mass spectrometry.
Test [3] concerns the target G3BP1-BirA* (human) (UniProt Q13283). As to the kind of experiment: proximity labelling; proximity labeling assay of TRIM25 and G3BP1 under various stress inducers (poly(I:C), osmotic stress, puromycin, CCCP, MG132, sodium arsenite, thapsigargin) (Fig. S1g).

These are yes or no findings as the source states them, for the method shown. In cells and extracts the contact can be indirect. A yes stands for co-enrichment or nearness to the bait. Other partners may have been found.

Turning to DDX3X (from UniProt O00571 1-662), the binding result in test [1] was “binds”.

For “m6A reader IGF2BP2 (from UniProt Q9Y6M1 1-599)”, the binding entry in test [2] is listed as “binds”. In the case of “Zinc-Finger Antiviral Protein ZC3HAV1 (from UniProt Q7Z2W4 1-902)”, in test [2], the binding entry was “binds”. Turning to HDAC6 (from UniProt Q9UBN7 1-1215), in test [1], the binding entry is given as “binds”. As for “endogenous TRIM25 (from UniProt Q14258 1-630)”, the binding entry in test [1] and in test [3] was “binds” in each case.

B1: Zinc-Finger Protein ZCCHC3 (protein, UniProt Q9NUD5 1-403)
chain: MATGGGAEEERKRGRPQLLPPARPAARGEEADGGREKMGWAQVVKNLAEKKGEFREPRPPRREEESGGGGGSAGLGGPAGLAAPDLGDFPPAGRGDPKGRRRDPAGEAVDPRKKKGAAEAGRRKKAEAAAAAMATPARPGEAEDAAERPLQDEPAAAAGPGKGRFLVRICFQGDEGACPTRDFVVGALILRSIGMDPSDIYAVIQIPGSREFDVSFRSAEKLALFLRVYEEKREQEDCWENFVVLGRSKSSLKTLFILFRNETVDVEDIVTWLKRHCDVLAVPVKVTDRFGIWTGEYKCEIELRQGEGGVRHLPGAFFLGAERGYSWYKGQPKTCFKCGSRTHMSGSCTQDRCFRCGEEGHLSPYCRKGIVCNLCGKRGHAFAQCPKAVHNSVAAQLTGVAGH
For B1, the binding result in test [2] is “binds”.
